Laboratory results published in paper PMC12040169 (PLOS Biology, 2025).
Some of the results follow.

Test system: T1, CTL2-GFP (C. trachomatis L2/434/Bu, GFP-expressing)
T1 construct: L2/434/Bu, GFP-expressing
Design: species or system HeLa; Intracellular C. trachomatis growth in HeLa cells, bulk GFP fluorescence relative to DMSO
Conditions: bulk GFP, single well; 28.5 h, 10 µM; inhibitor

| SMILES | % of control remaining [%] |
| --- | --- |
| Cc1[nH]c2ccccc2c1C(=O)CSc1nc2ccccc2o1 [CBK266339] | 144.106 |
| Cc1cc(NS(=O)(=O)c2ccc(NC(=O)C(c3ccccc3)c3ccccc3)cc2)no1 [CBK085112] | 104.634 |
| COc1ccc(C(NC(=O)CCc2ccccc2)c2ccc3cccnc3c2O)cc1 (stereo not shown) [CBK293942] | 124.032 |
| Cc1nnc(SCC(=O)Nc2cc(C(F)(F)F)ccc2N2CCOCC2)o1 [CBK266815] | 129.66 |
| O=C(O)C[S+]([O-])c1ccccc1C(=O)O (stereo not shown) [CBK263244] | 109.223 |
| Cn1ccc(CNCc2c(Br)cc(F)c(F)c2N2CCCCC2)n1 [CBK304763] | 107.584 |
| CN(CCCNC(=O)/C=N/O)CCCC(C)(C)C [CBK288480] | 136.611 |
| Brc1cccc(CSc2nnc(COc3ccccc3)n2Cc2ccccc2)c1 [CBK268250] | 84.3773 |
| Cn1cc(-c2nc(C3CCCCCN3C(=O)c3cc(Cl)c[nH]3)no2)cn1 (stereo not shown) [CBK306396] | 93.471 |
| Fc1cccc(-c2nccnc2NCC2CC2)c1 [CBK036767] | 119.959 |
| O=C(O)CCC(=O)N1CCN(S(=O)(=O)c2ccc(F)cc2)CC1 [CBK286956] | 141.639 |
| CC(=O)c1ccc(NC(=O)Cn2cnc3c(sc4ncccc43)c2=O)cc1 [CBK287773] | 129.14 |
| NS(=O)(=O)c1ccc(CNC(=O)C(Sc2ccccc2)c2ccccc2)cc1 (stereo not shown) [CBK264355] | 132.7 |
| Cn1c(SCc2c(Cl)cccc2[N+](=O)[O-])nnc1-c1ccc(NC(=O)c2ccccc2Cl)cc1 [CBK264983] | 117.542 |
| O=C(Cc1cccc(O)c1)N1CCCC1c1nc2ccccc2[nH]1 (stereo not shown) [CBK282346] | 121.774 |
| O=C(NCc1nc2ccccc2s1)c1ccc2c(c1)OCCO2 [CBK295325] | 128.457 |
| CCN(CC)CCN1CCN(c2cc(-c3ccsc3)ncn2)CC1 [CBK036973] | 157.489 |
| Cn1ccnc1CN1CCC2(C/C=C/Cc3ccccc3OCC(=O)NCCNC2=O)CC1 [CBK292180] | 127.763 |
| CCN1CCN(C(=O)C2CCN(S(=O)(=O)c3ccc(Br)cc3)CC2)CC1 [CBK266881] | 135.342 |
| CC(C)(O)C#Cc1ccc(C(=O)NC(CSCc2ccccc2)C(=O)O)s1 (stereo not shown) [CBK267705] | 145.109 |
| O=C(O)c1cccc(NC(=O)C2CCCCC2C(=O)O)c1 (stereo not shown) [CBK261538] | 107.196 |
| CN(CC(=O)N1CCCCC1)S(=O)(=O)c1cc(Cl)ccc1Cl [CBK091826] | 111.027 |
| CCNC(=O)N1C(CC(=O)OCC)C(=O)NC2CCCCC21 (stereo not shown) [CBK268030] | 121.916 |
| O=c1[nH]nc2c(N3CCc4ccccc4C3)nccn12 [CBK288497] | 96.1023 |
| O=C1c2ccccc2C(=O)N1CCc1c[nH]c2ccc(O)cc12 [CBK086794] | 138.285 |
| Cc1nn(Cc2nnn(CC(=O)O)n2)c(C)c1Br [CBK009457] | 129.779 |
| COCCOc1ccc(C(=O)N[C@@H]2CNCCC[C@H]2O)cc1 [CBK289071] | 145.88 |

Reformatted tab-delimited: entries from further up
SMILES	% of control remaining [%]
Brc1cccc(CSc2nnc(COc3ccccc3)n2Cc2ccccc2)c1 [CBK268250]	84.3773
COCCOc1ccc(C(=O)N[C@@H]2CNCCC[C@H]2O)cc1 [CBK289071]	145.88

The listing continues:

| SMILES | % of control remaining [%] |
| --- | --- |
| O=C(COc1ccc(-c2ccccc2)cc1)N/N=C/c1ccncc1 [CBK262210] | 94.0363 |
| Cn1c(SCC(=O)Nc2c(F)cc(F)cc2Br)nnc1-c1cnccn1 [CBK267584] | 137.413 |
| COC(=O)c1ccc(F)c(NC(=O)C2CCCC2)c1 [CBK296640] | 157.941 |
| O=C(CN1C(=O)c2ccc([N+](=O)[O-])cc2C1=O)Nc1ccc(O)cc1C(=O)O [CBK263456] | 132.645 |
| O=C(Nc1ccccc1N1CCOCC1)c1ccc(OCc2ccccc2)cc1 [CBK265992] | 159.767 |
| CC(=O)Nc1ccccc1NC(=O)CCCN1C(=O)CCC1=O [CBK267681] | 103.864 |
| CN(C)CC1CCCN(C(=O)c2cc3cc(Cl)ccc3n2C)C1 (stereo not shown) [CBK282121] | 116.381 |
| O=C(CCN1CCN(CCO)CC1)Nc1ccc(F)c(F)c1 [CBK264316] | 100 |
| Cc1ccc(OCC(=O)N2CCN(S(=O)(=O)c3ccc([N+](=O)[O-])cc3)CC2)cc1 [CBK264267] | 109.257 |
| COc1cc(C)c(Nc2cc(-c3ccc(C(N)=O)cc3)ncn2)cc1OC [CBK090784] | 154.132 |
| O=c1cc(C(F)(F)F)c2ccc(OCc3ccc(Cl)cc3)cc2o1 [CBK058200] | 117.821 |
| Cc1nccn1CCCn1cncc1-c1ccc2c(c1)CC(C)N2C (stereo not shown) [CBK281818] | 102.839 |
| Cc1n[nH]c(C)c1CCCCCOc1ccccc1F [CBK025736C] | 118.117 |
| O=c1[nH]c(=O)n([C@H]2C[C@@H](O)[C@@H](CO)O2)cc1CO [CBK201332] | 120.409 |
| Cc1csc2nc(CN3CCN(C(=O)c4ccccc4)CC3)cc(=O)n12 [CBK305019] | 94.7736 |
| C[C@H](Cn1nc2c(cc1=O)CCCCC2)NC(=O)Cc1cccs1 [CBK284548] | 89.1043 |
| CC(=O)c1sc(NC(=O)c2ccccc2Oc2ccccc2)nc1C [CBK287314] | 138.108 |
| O=C(NC1CCCC1)c1ccc2c(=O)[nH]cnc2c1 [CBK287990] | 127.825 |
| O=C(C(CO)c1ccccc1)N1CCC2(CCN(CCCCOc3ccccc3)C2)C1 (stereo not shown) [CBK161722] | 127.602 |
| O=C(CN1CCN(CCCc2c[nH]c3ccc(F)cc23)CC1)N(c1ccccc1)C1CCCCC1 [CBK074710] | 154.964 |
| O=C(NC[C@H]1O[C@@H](CC(=O)N2CCN(c3ccc(F)cc3)CC2)[C@H](O)[C@@H]1O)C1CC1 [CBK288921] | 128.692 |
| Cc1nc2cc(C(=O)N3CCC(c4ccncc4)CC3)ccc2s1 [CBK283513] | 87.308 |
| Cc1ccc(SC(C)C(=O)O/N=C(\N)c2ccccn2)cc1 (stereo not shown) [CBK268567] | 88.8629 |
| N#Cc1ccccc1COC(=O)c1cc(-c2ccc(/C=C/c3nc(O)c([N+](=O)[O-])c(=O)[nH]3)o2)ccc1Cl [CBK269115] | 118.294 |
| COC(=O)c1cscc1NC(=O)c1cnc(-c2ccc(Cl)cc2)c(-c2ccco2)c1 [CBK036657] | 128.619 |
| OC[C@H]1CCCN1c1nc(Br)cn2ccnc12 [CBK085496] | 127.841 |
| Cc1cc(C)nc(-n2ncc(C#N)c2N)n1 [CBK270227] | 147.249 |

Random excerpt: three compounds from above.

| SMILES | % of control remaining [%] |
| --- | --- |
| COCCOc1ccc(C(=O)N[C@@H]2CNCCC[C@H]2O)cc1 [CBK289071] | 145.88 |
| Cc1cc(C)nc(-n2ncc(C#N)c2N)n1 [CBK270227] | 147.249 |
| CC(C)(O)C#Cc1ccc(C(=O)NC(CSCc2ccccc2)C(=O)O)s1 (stereo not shown) [CBK267705] | 145.109 |

(more compounds)

| SMILES | % of control remaining [%] |
| --- | --- |
| CSc1nnc(NS(=O)(=O)c2ccccc2C)s1 [CBK144918] | 97.6179 |
| O/N=C1\CSCc2ncccc21 [CBK007234] | 150.044 |
| COCCNc1nc2c(c(N3CCCC(C#N)C3)n1)CCNCC2 (stereo not shown) [CBK307412] | 127.032 |
| COc1ccc(CNc2ccc(N3CCOCC3)c(C(=O)O)c2)c(OC)c1 [CBK269860] | 118.994 |
| COc1ccc(-n2c(S)nnc2-c2cccs2)cc1 [CBK266832] | 103.001 |
| O=C(O)c1cccc(NS(=O)(=O)c2cccc([N+](=O)[O-])c2)c1 [CBK155711] | 121.486 |
| Cc1cc2occ(CC(=O)NCc3cc(C4CC4)[nH]n3)c2cc1C [CBK282576] | 131.108 |
| O=C(O)C(Cc1ccccc1)C(C(=O)O)c1ccccc1 (stereo not shown) [CBK286578] | 106.732 |
| O=C(Nc1ccc2oc(-c3cccnc3)nc2c1)c1cccc(-c2cc3ccccc3oc2=O)c1 [CBK268612] | 138.387 |
| CS(=O)(=O)Nc1ccc(-c2ccsc2)c2ccccc12 [CBK083742] | 99.8272 |
| Cc1ccccc1C(NC(=O)C1CCN(S(=O)(=O)C(C)C)CC1)c1ccccn1 (stereo not shown) [CBK059711] | 158.534 |
| O=C(O)CCC(CCC(=O)O)([N+](=O)[O-])[N+](=O)[O-] [CBK260956] | 115.666 |
| Fc1ccc(-c2ccc(Nc3cccnc3)nc2)cc1Cl [CBK037642] | 133.168 |
| CCOC(=O)CC1SC(NS(=O)(=O)c2ccc(Br)cc2)=NC1=O (stereo not shown) [CBK014126] | 90.0496 |
| Cc1ccc2cc(S(=O)(=O)NCCC(=O)O)ccc2c1 [CBK267569] | 137.665 |
| Cc1cc(C)n(-c2nc3ccccc3nc2N2CCN(S(=O)(=O)c3ccccc3)CC2)n1 [CBK269399] | 157.68 |
| COc1ccc(CNc2nc(-c3ccc(C)cc3)nn2C(=O)c2cccc([N+](=O)[O-])c2)cc1 [CBK268546] | 88.7329 |
| O=C(C1CCCCC1)N1CC(n2nc(-c3cccs3)ccc2=O)C1 [CBK283346] | 103.092 |
| O=C(CCS(=O)(=O)Cc1ccccc1)n1nnc2ccccc21 [CBK268324] | 99.9508 |
| CN1CCN(C)C(COc2cccc(C(F)(F)F)n2)C1 (stereo not shown) [CBK113292] | 115.12 |
| O=C(CN1C(=O)S/C(=C\c2ccc(OCc3ccccc3F)cc2)C1=O)c1ccc(Cl)cc1 [CBK264632] | 110.991 |
| COCCN1C(=O)C2(CC(=O)N(CCCN3C(=O)CCC3=O)C2=O)c2ccccc21 (stereo not shown) [CBK075333] | 78.279 |
| COc1ccc(CN2CCC(C(=O)NC(c3ccc(OC)nc3)c3ccccc3C)CC2)cc1 (stereo not shown) [CBK081445T] | 110.037 |
| CCNC(=O)N1CC2(CCN(CC(N)=O)CC2)c2ccccc21 [CBK126701] | 125.935 |
| CC(C)(C)c1ccc(NC(=O)N2CCCN(Cc3ccccc3)CC2)cc1 [CBK085876] | 93.8481 |
